Assay results taken from the supplement of paper PMC8975748.
Structures can show the parent of a compound that is named as a salt. ± gives the standard deviation of the averaged measurements. This is one part of the list. Values are raw readings; no control value is given beside them.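 A single yeast strain with four plasmids, each encoding a fluorescent protein and an amino-acid or uracil biosynthesis gene, seeds the community. Stochastic plasmid loss yields mixed prototroph and auxotroph subpopulations. Fixed cells were counted via automated confocal fluorescence imaging; DMSO-treated wells were the vehicle reference.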

Each compound was assayed on Saccharomyces cerevisiae BY4741 SeMeCo community (assay: imaged cell count per well (cells); higher = more cells). Conditions: 10 µM; 24 h; SM minimal medium.
Protocol: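 Same SeMeCo high-content imaging drug screen: Selleck FDA-approved drugs at 10 µM, 24 h in SM medium, 384-well plates, 3 replicates.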

Compound | imaged cell count per well
CC(=O)O[C@H]1C[C@@H]2CC[C@@H]3[C@H](CC[C@@]4(C)[C@H]3C[C@H]([N+]3(C)CCCCC3)[C@@H]4OC(C)=O)[C@@]2(C)C[C@@H]1N1CCCCC1 [Vecuronium Bromide] | 24100 ± 8200
CCCCCCCCN=c1ccn(CCCCCCCCCCn2ccc(=NCCCCCCCC)cc2)cc1 [Octenidine Dihydrochloride] | 1600 ± 620
OCc1ccccc1O[C@@H]1O[C@H](CO)[C@@H](O)[C@H](O)[C@H]1O [Salicin] | 26200 ± 1100
C[C@@H](O)[C@H]1C(=O)N2C(C(=O)O)=C([C@H]3CCCO3)S[C@H]12 [Faropenem Sodium] | 19800 ± 9100
Nc1ccc(/N=N/c2ccccc2)c(N)n1 [Phenazopyridine HCl] | 23300 ± 3300
c1ccc(-c2ccc(C(c3ccccc3)n3ccnc3)cc2)cc1 (stereo unspecified) [Bifonazole] | 16900 ± 3000
C[C@@H]1CC(=O)NN=C1c1ccc(NN=C(C#N)C#N)cc1 [Levosimendan] | 23100 ± 3400
COc1c(N2CCNC(C)C2)c(F)cc2c(=O)c(C(=O)O)cn(C3CC3)c12 (stereo unspecified) [Gatifloxacin] | 24000 ± 3000
COc1ccc(-c2nc3cc(C4=NNC(=O)CC4C)ccc3[nH]2)cc1 (stereo unspecified) [Pimobendan] | 25600 ± 1500
C[C@]12CCC3=C4CCC(=O)C=C4CC[C@H]3[C@@H]1CC[C@@]2(O)CC#N [Dienogest] | 25700 ± 3000
NC[C@H]1O[C@H](O[C@H]2[C@H](O)[C@@H](O[C@H]3O[C@H](CO)[C@@H](O)[C@H](N)[C@H]3O)[C@H](N)C[C@@H]2N)[C@H](N)C[C@@H]1O [Tobramycin] | 33100 ± 640

Pulled by structure from the entries so far (2):
Compound | imaged cell count per well
NC[C@H]1O[C@H](O[C@H]2[C@H](O)[C@@H](O[C@H]3O[C@H](CO)[C@@H](O)[C@H](N)[C@H]3O)[C@H](N)C[C@@H]2N)[C@H](N)C[C@@H]1O [Tobramycin] | 33100 ± 640
Nc1ccc(/N=N/c2ccccc2)c(N)n1 [Phenazopyridine HCl] | 23300 ± 3300
